Measurements reported in article PMC9606253.
These are yes or no findings as the source states them, for the method shown. Binding seen in cells or lysates may run through a third protein. Some binding calls cover weakened binding; strength is not graded here.

Sequences of proteins named here, by UniProt entry; tags and fusion partners are left off.
UniProt Q62280: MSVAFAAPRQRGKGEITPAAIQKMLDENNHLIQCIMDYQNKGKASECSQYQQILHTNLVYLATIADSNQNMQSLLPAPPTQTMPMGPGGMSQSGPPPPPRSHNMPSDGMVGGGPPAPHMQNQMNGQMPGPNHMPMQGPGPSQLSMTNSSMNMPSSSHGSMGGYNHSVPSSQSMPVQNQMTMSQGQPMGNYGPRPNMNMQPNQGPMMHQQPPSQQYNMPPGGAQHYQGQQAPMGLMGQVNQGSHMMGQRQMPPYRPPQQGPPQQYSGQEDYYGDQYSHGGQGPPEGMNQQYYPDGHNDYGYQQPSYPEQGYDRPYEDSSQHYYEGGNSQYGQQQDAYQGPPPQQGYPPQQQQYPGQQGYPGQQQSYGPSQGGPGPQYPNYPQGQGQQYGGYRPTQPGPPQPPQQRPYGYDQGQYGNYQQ
UniProt Q3TKT4: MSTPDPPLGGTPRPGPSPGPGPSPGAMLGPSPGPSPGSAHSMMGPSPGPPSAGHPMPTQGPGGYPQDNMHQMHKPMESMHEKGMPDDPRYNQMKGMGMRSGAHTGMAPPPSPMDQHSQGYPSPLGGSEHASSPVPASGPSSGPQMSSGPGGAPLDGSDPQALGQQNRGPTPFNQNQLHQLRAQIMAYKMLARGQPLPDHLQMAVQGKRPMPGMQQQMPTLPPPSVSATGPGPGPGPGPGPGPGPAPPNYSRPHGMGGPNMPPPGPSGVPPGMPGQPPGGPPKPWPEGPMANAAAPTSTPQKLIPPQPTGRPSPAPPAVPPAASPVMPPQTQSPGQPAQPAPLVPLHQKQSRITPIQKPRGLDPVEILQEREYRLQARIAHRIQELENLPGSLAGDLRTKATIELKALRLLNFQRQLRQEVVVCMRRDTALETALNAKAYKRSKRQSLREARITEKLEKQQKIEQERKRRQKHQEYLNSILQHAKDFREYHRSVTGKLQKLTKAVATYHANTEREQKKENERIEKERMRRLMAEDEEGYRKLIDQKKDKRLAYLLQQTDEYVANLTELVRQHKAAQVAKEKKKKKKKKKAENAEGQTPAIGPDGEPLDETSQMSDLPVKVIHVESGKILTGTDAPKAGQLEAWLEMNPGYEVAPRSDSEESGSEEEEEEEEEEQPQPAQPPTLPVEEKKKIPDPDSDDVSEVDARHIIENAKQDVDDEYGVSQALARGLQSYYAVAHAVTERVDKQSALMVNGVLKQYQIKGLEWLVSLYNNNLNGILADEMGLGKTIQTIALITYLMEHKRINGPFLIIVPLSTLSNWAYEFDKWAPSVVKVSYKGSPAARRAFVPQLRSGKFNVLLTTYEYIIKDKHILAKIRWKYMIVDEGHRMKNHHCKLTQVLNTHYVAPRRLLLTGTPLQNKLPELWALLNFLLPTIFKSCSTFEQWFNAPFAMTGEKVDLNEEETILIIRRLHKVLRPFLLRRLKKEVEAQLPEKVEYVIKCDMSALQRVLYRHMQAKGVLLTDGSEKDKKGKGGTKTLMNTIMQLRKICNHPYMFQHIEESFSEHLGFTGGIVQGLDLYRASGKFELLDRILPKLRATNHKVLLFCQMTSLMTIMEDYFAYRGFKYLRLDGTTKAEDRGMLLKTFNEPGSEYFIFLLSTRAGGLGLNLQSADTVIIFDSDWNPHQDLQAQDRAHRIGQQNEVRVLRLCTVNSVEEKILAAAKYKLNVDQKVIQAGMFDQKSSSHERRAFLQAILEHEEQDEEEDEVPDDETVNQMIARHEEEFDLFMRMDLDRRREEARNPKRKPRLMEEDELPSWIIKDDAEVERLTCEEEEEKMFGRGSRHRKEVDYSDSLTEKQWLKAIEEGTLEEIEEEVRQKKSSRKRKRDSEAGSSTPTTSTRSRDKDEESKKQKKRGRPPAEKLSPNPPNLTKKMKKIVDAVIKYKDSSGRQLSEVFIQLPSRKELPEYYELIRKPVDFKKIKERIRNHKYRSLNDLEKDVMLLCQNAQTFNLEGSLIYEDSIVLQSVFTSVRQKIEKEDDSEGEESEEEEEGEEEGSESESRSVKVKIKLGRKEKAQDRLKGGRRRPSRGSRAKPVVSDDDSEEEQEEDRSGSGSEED
UniProt Q8BW22: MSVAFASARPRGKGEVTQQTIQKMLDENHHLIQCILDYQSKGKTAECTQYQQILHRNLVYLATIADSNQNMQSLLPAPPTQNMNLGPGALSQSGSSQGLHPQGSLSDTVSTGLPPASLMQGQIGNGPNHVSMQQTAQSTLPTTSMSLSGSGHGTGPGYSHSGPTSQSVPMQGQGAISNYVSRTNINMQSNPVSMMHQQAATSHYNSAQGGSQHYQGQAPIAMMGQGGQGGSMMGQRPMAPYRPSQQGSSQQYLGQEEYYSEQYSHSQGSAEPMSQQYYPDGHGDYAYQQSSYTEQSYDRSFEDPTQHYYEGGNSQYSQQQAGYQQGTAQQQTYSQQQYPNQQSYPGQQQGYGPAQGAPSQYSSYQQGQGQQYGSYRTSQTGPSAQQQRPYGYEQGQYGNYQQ
UniProt Q9Z0H3: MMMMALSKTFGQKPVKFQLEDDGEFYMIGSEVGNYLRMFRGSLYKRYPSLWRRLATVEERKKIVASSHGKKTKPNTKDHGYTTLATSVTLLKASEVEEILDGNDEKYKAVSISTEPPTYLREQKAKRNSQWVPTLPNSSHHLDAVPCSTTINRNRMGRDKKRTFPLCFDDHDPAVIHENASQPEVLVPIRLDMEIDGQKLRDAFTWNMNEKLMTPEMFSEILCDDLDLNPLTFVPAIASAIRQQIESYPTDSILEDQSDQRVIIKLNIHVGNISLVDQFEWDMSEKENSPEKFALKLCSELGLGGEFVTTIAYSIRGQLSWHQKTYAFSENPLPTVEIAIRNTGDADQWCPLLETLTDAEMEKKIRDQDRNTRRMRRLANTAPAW
UniProt Q6PDG5: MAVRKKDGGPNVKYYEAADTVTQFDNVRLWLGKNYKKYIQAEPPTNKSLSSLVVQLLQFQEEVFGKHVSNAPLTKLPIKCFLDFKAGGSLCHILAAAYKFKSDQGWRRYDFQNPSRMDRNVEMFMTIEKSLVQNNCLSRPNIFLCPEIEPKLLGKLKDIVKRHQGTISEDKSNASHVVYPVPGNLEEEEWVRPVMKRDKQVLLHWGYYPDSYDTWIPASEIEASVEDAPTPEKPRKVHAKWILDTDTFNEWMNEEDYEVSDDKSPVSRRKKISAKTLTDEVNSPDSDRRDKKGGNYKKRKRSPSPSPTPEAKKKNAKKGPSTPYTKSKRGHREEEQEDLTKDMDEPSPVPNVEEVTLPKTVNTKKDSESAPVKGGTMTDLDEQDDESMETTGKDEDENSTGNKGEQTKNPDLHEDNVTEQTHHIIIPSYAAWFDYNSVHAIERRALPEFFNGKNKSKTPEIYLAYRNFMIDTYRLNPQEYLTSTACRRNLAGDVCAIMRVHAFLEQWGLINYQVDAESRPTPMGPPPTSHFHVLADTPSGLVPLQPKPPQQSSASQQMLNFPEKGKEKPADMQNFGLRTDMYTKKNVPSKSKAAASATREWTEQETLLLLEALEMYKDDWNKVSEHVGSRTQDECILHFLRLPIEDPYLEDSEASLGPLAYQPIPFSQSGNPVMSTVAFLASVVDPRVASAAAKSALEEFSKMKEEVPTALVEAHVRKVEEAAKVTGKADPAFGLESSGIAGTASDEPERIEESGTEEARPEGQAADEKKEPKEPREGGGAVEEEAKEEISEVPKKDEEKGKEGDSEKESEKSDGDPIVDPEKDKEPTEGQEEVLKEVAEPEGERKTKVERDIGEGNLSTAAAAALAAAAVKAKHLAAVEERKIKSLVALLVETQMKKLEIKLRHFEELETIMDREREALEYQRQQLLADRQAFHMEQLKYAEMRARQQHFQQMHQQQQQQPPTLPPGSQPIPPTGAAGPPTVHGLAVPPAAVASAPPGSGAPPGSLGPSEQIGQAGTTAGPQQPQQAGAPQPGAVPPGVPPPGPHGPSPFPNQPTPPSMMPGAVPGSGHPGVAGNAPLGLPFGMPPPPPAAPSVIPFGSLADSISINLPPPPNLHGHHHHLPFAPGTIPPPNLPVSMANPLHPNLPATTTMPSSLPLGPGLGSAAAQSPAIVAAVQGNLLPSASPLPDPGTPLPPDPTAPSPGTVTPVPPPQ
UniProt Q921C3: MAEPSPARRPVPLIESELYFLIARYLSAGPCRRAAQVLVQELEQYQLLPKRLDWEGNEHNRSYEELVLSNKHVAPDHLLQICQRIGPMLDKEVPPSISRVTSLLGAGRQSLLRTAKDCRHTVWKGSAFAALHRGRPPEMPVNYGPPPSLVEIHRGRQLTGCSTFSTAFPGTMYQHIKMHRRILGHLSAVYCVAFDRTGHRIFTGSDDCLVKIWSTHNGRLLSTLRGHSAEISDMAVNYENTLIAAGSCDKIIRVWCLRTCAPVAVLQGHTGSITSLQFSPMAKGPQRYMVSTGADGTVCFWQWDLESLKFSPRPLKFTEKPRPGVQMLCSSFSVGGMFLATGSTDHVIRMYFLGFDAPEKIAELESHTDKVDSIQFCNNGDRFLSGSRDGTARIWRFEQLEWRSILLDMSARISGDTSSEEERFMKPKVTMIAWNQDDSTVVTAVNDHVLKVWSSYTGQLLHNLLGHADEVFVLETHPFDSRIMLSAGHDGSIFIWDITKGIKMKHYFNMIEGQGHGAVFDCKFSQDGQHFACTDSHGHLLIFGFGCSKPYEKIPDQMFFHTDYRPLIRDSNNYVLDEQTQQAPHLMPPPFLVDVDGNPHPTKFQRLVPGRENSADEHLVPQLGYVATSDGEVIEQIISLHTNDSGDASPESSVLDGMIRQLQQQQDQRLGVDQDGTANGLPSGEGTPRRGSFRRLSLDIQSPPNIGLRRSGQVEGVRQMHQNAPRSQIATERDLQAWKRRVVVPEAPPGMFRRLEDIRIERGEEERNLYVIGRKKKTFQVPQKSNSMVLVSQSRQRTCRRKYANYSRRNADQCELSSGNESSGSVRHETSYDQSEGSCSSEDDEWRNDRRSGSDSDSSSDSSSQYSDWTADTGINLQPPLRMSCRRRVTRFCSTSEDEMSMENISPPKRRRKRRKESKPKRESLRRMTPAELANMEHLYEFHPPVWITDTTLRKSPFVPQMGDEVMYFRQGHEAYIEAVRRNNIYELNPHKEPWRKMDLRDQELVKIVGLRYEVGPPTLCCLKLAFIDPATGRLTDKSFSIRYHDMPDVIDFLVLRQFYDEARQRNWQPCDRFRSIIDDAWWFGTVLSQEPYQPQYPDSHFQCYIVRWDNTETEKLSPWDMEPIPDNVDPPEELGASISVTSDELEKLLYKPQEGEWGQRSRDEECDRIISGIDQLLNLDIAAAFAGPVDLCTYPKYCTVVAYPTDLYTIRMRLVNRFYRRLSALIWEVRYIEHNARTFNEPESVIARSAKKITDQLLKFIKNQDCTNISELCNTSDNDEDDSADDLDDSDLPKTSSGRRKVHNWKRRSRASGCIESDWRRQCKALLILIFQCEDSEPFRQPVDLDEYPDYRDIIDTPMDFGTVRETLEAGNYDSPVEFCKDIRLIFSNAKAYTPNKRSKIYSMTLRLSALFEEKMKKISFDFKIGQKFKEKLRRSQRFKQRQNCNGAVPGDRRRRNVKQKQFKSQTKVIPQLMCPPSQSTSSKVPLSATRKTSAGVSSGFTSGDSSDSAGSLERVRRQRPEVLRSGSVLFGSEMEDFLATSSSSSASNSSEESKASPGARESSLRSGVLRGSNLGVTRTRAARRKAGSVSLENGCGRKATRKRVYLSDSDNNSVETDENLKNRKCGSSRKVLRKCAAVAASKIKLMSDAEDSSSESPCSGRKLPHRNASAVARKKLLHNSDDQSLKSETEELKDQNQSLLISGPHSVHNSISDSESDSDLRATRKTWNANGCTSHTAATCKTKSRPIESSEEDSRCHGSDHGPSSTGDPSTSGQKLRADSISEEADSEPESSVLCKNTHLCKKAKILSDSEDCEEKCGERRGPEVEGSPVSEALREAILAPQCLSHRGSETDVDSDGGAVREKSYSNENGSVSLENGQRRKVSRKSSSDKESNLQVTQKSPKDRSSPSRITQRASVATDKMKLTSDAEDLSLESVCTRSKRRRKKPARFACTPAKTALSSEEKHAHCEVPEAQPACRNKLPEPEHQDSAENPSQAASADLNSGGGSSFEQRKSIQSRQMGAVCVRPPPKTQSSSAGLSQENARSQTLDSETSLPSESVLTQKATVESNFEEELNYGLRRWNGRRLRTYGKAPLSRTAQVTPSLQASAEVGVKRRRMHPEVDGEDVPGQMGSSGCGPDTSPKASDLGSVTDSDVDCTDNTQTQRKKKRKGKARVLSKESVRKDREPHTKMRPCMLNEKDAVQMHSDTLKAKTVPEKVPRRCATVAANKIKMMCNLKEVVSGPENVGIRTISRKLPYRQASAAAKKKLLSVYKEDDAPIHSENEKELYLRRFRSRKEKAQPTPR

Assays:
[1] = target: SS18 (mouse (endogenous in mouse brain)) (UniProt Q62280); assay: co-IP; E17.5 Brwd1^FLAG-HA mouse brain nuclear extract (0.25 mg/mL) on antibodies to BAF subunits bound to Protein G Dynabeads, overnight 4 °C; IP buffer 20 mM HEPES pH 7.5, 150 mM KCl, 0.1% Triton X-100, 10% glycerol; BRWD1 detected by HA blot; IgG control
[2] = target: SMARCA4 (mouse (endogenous in mouse brain)) (UniProt Q3TKT4); assay: as above
[3] = target: SS18L1 (mouse (endogenous in mouse brain)) (UniProt Q8BW22); assay: as above
[4] = target: SMARCA4 (mouse (endogenous in mouse brain)) (UniProt Q3TKT4); assay: co-IP; adult Brwd1^FLAG-HA mouse brain nuclear extract (0.25 mg/mL) on antibodies to BAF subunits bound to Protein G Dynabeads, overnight 4 °C; IP buffer 20 mM HEPES pH 7.5, 150 mM KCl, 0.1% Triton X-100, 10% glycerol; BRWD1 detected by HA blot
[5] = target: SMARCB1 (mouse (endogenous in mouse brain)) (UniProt Q9Z0H3); assay: as above
[6] = target: SS18L1 (mouse (endogenous in mouse brain)) (UniProt Q8BW22); assay: as above
[7] = target: SMARCC2 (mouse (endogenous in mouse brain)) (UniProt Q6PDG5); assay: as above

Measured: binding

BRWD1-FLAG-HA (from UniProt Q921C3 1-2304)
binds: all assays above
